The list shows a part of the results. Small differences around the control level are noise.

Protein sequences, listed by entry. Tags and fused reporters are not part of them. Lines headed by an entry give the natural chain unless they say otherwise; changes in a name come on top.
UniProt Q9Y3A2: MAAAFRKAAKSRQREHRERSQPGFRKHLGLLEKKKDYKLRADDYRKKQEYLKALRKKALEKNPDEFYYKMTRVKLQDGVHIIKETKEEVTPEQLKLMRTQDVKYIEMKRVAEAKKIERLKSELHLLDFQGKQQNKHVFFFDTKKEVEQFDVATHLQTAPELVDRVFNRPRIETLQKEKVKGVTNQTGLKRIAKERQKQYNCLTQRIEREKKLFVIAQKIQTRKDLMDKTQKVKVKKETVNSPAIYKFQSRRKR
UniProt Q9Y618, whole entry: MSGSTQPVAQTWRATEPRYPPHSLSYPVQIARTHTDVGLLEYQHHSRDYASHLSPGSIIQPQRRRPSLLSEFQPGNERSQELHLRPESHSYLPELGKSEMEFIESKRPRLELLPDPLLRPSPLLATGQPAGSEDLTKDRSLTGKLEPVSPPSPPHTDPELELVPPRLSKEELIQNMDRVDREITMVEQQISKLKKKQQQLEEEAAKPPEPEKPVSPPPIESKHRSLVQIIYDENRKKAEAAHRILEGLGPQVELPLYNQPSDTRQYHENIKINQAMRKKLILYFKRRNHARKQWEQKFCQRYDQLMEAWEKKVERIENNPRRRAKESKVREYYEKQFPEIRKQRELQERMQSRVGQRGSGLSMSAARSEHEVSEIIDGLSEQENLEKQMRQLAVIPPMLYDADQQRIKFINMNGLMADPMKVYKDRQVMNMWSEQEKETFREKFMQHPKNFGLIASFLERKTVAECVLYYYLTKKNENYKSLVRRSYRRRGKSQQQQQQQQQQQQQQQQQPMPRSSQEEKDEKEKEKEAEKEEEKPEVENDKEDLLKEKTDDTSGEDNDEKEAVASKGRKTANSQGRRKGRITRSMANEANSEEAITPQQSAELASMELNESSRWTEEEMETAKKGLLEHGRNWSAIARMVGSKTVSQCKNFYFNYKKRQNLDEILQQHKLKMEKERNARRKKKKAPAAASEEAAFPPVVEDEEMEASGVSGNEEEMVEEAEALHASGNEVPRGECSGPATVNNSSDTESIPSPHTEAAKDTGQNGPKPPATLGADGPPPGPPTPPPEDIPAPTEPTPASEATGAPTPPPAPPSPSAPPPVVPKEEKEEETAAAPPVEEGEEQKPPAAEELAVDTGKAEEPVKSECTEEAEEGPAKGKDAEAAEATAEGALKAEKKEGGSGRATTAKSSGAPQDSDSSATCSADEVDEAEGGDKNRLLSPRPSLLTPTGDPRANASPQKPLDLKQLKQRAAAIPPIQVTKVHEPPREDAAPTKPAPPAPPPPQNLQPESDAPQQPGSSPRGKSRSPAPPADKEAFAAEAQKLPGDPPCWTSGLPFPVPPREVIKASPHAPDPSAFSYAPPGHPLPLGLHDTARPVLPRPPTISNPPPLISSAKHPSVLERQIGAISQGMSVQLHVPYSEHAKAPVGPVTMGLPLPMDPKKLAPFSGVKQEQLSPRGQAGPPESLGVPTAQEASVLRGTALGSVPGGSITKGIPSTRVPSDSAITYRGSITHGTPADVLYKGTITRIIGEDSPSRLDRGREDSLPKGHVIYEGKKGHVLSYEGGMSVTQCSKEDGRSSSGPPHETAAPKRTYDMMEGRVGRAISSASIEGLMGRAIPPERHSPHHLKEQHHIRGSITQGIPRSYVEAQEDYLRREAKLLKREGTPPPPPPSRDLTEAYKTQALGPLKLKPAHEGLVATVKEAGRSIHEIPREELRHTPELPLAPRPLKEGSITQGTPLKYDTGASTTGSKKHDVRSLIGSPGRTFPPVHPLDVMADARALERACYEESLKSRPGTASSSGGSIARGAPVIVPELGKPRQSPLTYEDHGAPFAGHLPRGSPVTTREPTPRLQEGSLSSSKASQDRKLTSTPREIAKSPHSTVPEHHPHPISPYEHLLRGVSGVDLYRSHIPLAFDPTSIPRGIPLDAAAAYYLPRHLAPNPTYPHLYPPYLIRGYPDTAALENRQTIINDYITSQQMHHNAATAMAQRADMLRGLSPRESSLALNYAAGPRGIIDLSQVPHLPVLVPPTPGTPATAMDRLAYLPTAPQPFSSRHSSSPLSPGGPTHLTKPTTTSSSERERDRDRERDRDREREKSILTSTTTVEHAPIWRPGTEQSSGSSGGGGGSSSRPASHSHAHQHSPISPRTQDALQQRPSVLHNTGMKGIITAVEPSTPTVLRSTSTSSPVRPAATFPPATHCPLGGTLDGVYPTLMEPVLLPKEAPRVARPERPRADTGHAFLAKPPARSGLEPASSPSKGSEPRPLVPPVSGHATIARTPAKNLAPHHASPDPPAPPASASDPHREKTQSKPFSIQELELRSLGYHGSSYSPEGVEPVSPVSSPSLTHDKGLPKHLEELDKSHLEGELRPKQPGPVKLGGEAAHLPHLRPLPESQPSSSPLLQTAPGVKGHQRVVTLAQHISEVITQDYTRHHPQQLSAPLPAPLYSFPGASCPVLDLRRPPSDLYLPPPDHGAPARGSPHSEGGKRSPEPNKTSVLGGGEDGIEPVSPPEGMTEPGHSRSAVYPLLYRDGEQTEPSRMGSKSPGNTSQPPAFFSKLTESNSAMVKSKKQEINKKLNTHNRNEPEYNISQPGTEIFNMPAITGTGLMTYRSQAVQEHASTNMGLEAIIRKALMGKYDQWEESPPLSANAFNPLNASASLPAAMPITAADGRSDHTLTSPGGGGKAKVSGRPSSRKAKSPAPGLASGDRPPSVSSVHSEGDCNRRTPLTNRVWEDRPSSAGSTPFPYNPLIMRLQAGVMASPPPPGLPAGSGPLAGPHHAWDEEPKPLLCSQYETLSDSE
UniProt Q9Y4F5: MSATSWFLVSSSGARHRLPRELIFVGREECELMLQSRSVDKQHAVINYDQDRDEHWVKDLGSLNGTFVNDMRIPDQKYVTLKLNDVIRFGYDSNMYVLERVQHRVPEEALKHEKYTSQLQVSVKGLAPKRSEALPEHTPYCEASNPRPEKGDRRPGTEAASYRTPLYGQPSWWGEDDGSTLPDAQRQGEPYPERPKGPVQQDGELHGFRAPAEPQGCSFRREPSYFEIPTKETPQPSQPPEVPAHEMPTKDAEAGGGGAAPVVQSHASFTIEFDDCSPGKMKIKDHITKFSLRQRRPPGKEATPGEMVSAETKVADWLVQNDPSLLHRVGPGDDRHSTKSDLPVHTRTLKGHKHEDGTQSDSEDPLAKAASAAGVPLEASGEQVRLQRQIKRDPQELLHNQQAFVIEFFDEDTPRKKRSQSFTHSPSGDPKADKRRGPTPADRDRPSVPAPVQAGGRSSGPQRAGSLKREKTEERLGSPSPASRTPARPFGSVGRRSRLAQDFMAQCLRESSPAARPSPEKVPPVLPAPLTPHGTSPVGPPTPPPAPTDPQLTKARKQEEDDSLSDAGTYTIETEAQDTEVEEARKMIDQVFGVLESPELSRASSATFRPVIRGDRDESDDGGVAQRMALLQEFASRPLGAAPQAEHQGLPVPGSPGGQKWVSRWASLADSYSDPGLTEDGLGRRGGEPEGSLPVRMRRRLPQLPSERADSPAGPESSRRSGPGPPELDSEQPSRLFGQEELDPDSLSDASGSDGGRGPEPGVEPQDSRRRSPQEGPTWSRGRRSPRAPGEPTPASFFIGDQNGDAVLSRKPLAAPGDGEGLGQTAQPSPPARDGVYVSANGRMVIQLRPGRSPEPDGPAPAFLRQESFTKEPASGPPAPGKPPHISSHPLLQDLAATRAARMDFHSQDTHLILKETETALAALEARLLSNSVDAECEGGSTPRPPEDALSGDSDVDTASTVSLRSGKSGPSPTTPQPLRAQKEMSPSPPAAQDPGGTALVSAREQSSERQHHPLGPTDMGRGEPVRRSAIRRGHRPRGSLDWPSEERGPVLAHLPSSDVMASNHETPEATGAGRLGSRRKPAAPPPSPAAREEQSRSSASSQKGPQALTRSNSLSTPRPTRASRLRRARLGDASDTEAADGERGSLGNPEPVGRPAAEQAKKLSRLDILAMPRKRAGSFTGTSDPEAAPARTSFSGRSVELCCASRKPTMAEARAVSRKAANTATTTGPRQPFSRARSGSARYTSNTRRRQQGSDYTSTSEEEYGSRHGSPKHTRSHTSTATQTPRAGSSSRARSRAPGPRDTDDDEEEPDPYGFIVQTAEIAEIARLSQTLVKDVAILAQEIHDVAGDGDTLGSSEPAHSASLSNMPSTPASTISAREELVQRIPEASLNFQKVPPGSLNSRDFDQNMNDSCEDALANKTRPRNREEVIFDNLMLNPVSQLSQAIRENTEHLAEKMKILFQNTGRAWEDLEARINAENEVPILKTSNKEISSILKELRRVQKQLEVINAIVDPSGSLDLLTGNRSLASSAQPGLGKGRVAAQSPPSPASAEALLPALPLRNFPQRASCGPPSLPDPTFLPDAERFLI
UniProt Q9Y4H4: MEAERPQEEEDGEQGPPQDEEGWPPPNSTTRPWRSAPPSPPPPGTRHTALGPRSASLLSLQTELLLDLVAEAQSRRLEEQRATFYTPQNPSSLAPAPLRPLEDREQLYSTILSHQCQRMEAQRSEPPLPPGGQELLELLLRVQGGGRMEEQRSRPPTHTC
UniProt Q9Y3Q8: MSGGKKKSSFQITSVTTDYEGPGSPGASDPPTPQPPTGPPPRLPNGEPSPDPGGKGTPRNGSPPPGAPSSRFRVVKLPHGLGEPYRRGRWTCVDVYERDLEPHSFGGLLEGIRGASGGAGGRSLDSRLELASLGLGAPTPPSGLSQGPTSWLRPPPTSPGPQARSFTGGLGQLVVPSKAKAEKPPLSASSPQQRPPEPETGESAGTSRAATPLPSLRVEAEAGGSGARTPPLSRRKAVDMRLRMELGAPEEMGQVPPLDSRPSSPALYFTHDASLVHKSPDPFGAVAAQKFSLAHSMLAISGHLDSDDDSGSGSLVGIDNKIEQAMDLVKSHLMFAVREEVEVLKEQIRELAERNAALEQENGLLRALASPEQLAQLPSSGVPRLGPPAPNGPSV
UniProt Q9Y2M0: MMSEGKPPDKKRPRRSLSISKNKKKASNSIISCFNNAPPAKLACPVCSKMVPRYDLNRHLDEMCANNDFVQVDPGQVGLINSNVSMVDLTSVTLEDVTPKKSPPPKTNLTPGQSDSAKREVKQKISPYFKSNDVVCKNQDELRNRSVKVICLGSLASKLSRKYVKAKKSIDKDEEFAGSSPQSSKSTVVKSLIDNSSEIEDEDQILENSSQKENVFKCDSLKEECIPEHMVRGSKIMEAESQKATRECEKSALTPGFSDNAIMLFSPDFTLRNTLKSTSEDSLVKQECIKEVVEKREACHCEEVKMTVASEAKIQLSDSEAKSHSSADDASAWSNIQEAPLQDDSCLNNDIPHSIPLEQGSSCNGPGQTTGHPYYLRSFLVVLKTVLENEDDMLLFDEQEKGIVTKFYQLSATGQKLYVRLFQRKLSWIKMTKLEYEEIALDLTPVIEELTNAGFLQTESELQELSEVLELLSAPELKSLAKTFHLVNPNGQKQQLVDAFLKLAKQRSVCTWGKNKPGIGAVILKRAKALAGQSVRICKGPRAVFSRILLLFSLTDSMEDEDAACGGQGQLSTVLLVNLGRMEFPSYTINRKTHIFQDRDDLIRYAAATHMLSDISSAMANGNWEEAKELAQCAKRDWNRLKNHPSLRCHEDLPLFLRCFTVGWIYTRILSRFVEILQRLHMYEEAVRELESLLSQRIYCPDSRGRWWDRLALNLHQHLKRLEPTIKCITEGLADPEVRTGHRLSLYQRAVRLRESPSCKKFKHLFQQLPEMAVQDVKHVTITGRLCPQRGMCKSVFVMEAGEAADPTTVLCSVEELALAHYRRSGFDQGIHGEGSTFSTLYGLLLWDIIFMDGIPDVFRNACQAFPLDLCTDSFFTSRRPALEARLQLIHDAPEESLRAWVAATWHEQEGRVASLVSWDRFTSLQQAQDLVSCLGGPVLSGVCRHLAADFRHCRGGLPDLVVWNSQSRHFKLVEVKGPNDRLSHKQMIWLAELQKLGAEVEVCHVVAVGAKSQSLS
UniProt Q9Y5K6, whole entry: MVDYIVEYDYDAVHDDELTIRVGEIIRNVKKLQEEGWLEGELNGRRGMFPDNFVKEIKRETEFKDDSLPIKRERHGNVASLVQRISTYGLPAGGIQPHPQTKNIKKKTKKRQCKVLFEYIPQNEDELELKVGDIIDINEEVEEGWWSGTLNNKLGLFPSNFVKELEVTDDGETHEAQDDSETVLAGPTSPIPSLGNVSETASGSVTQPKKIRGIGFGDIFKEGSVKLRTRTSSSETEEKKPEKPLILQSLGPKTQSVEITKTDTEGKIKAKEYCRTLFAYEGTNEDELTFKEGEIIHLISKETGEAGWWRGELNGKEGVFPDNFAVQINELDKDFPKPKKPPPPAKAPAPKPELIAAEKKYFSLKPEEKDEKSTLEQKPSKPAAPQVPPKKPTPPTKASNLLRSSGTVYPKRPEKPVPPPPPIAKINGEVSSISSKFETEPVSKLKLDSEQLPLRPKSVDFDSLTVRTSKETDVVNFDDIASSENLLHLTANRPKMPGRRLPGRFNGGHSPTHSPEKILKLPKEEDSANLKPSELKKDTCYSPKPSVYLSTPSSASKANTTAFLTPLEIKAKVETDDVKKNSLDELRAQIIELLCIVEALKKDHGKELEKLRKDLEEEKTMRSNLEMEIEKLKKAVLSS

Compound in the experiment: Cc1nc(Nc2ncc(C(=O)Nc3c(C)cccc3Cl)s2)cc(N2CCN(CCO)CC2)n1 [dasatinib]
The experiment is described as follows: log2 fold change of tryptic peptide abundance, ligand vs vehicle (limited proteolysis) (log2 ratio); higher = more trypsin-susceptible (destabilized). As to conditions: ligand concentration: 5 uM; sample: K562 cleared lysate.
With “UTP11 (peptide sequence: ALEKNPDEFYYK, peptide start residue: 58) (UniProt Q9Y3A2)”, the log2 fold change was 0.296.
As to “UniProt Q9Y5S9 (peptide sequence: NIHLNLDR, peptide start residue: 101)”, the log2 fold change was found to be 0.197.
With “UniProt Q9Y6R6 (peptide sequence: HQKIHMGEK, peptide start residue: 351)” the figure was -0.0971.
For “RAD54B (peptide sequence: QGLCGAVVDLTK, peptide start residue: 786) (UniProt Q9Y620)” the value was 0.2; for “UniProt Q9Y3B4 (peptide sequence: KKEEQLK, peptide start residue: 105)”, -0.125.
With “YTHDF2 (peptide sequence: TKNGIAGSSLPPPPIK, peptide start residue: 255) (UniProt Q9Y5A9)” the figure was -0.296; with “NCOR2 (peptide sequence: PLVPPVSGHATIAR, peptide start residue: 1980) (UniProt Q9Y618)”, -0.696.
In the case of “AMMECR1 (peptide sequence: IEFINEK, peptide start residue: 241) (UniProt Q9Y4X0)”, the log2 fold change stood at 0.18.
For “UniProt Q9Y3Y2 (peptide sequence: GALARPVLTK, peptide start residue: 204)” the value was -0.734; for “CEP170B (peptide sequence: LDILAMPR, peptide start residue: 1167) (UniProt Q9Y4F5)”, -0.251; for “C15orf41 (peptide sequence: HAIGHEHEVLLR, peptide start residue: 159) (UniProt Q9Y2V0)”, 0.321.
For “GPSM3 (peptide sequence: SRPPTHTC, peptide start residue: 153) (UniProt Q9Y4H4)” the value was 0.192.
With “RBMX2 (peptide sequence: TIRVDHVSNYR, peptide start residue: 106) (UniProt Q9Y388)” the figure was -0.501; with “TSC22D4 (peptide sequence: VVKLPHGLGEPYR, peptide start residue: 74) (UniProt Q9Y3Q8)”, -0.908.
Take “NISCH (peptide sequence: YFSEPLQDFWHQK, peptide start residue: 1198) (UniProt Q9Y2I1)”: the log2 fold change is 0.111.
For “HYOU1 (peptide sequence: TPVIVTLK, peptide start residue: 68) (UniProt Q9Y4L1)” the value was 0.112; for “GMPPB (peptide sequence: SIGESVPEPR, peptide start residue: 348) (UniProt Q9Y5P6)”, -0.0778.
For “RBM7 (peptide sequence: LYGRPIKIQFR, peptide start residue: 75) (UniProt Q9Y580)” the value was -0.454; for “RBM19 (peptide sequence: AETEKPANQKEPTTCHTVK, peptide start residue: 279) (UniProt Q9Y4C8)”, 0.815.
For “ASB1 (peptide sequence: STPVYHASR, peptide start residue: 145) (UniProt Q9Y576)” the value was -0.0816.
“SNX14 (peptide sequence: LFNDLFK, peptide start residue: 757) (UniProt Q9Y5W7)”: the log2 fold change worked out at 0.0468.
With “UniProt Q9Y2M0 (peptide sequence: SIDKDEEFAGSSPQSSK, peptide start residue: 169)” the figure was -0.738; with “CD2AP (peptide sequence: DLEEEKTMR, peptide start residue: 614) (UniProt Q9Y5K6)”, 1.24.
With “TLN2 (peptide sequence: KEEGTGTLKK, peptide start residue: 140) (UniProt Q9Y4G6)” the figure was -0.233; with “UniProt Q9Y6W6 (peptide sequence: EGKEPLVLK, peptide start residue: 262)”, 0.313; with “RCL1 (peptide sequence: FIPDIYIYTDHMK, peptide start residue: 219) (UniProt Q9Y2P8)”, -0.162.
On to “TRAPPC1 (peptide sequence: NGVCLHYSEWHR, peptide start residue: 12) (UniProt Q9Y5R8)”, for which the log2 fold change is -0.325.
With “AP3M1 (peptide sequence: VLTWDVGK, peptide start residue: 338) (UniProt Q9Y2T2)” the figure was 0.703; with “CAPN7 (peptide sequence: KVIIDDQLPVDHK, peptide start residue: 344) (UniProt Q9Y6W3)”, -0.35; with “UniProt Q9Y2K7 (peptide sequence: SSPGAGPSDHHSASRDER, peptide start residue: 739)”, 0.821.
In the case of “GMEB1 (peptide sequence: STKFDLLISSAR, peptide start residue: 180) (UniProt Q9Y692)”, the log2 fold change was -0.14.
With “CARHSP1 (peptide sequence: HETWSGHVISS, peptide start residue: 137) (UniProt Q9Y2V2)” the figure was 0.0595; with “DLGAP4 (peptide sequence: DKASDASDKQR, peptide start residue: 943) (UniProt Q9Y2H0)”, -0.449; with “TBL2 (peptide sequence: AMVEEMQGHLKR, peptide start residue: 407) (UniProt Q9Y4P3)”, -0.233.
For “HCFC2 (peptide sequence: GYGPATQVR, peptide start residue: 1990) (UniProt Q9Y5Z7)”, the log2 fold change is -0.232.
For “NCKAP1 (peptide sequence: IGQETDKTTTR, peptide start residue: 1069) (UniProt Q9Y2A7)” the value was 0.386.
For “UniProt Q9Y4F3 (peptide sequence: LFPAVPLPDIR, peptide start residue: 74)” the value was -0.331.

The record behind these values is the supplement of paper PMC12819154, “High-throughput peptide-centric local stability assay extends protein–ligand identification to membrane proteins, tissues and bacteria” (Nature Structural & Molecular Biology, 2025).
